{"source": "PubChem BioAssay AID504793 (Drosophila RNAi Screening Center, 2011)", "test": "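Genes required for cells to halt at G2/M after double-strand DNA breaks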 (primary screen)", "cell system": "Drosophila S2R+ cells", "reagent": "long dsRNA against Drosophila genes, about 0.25 µg dsRNA per well", "timing": "4 days of dsRNA, then 4 hours of drug before read-out", "treatment": "doxorubicin 0.5 µM for 4 hours to cause double-strand breaks, in cells also given a low, harmless dose of dsRNA against nbs to sensitise the assay", "detection": "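Per-well count of mitotic cells stained for phospho-histone H3 after doxorubicin exposure, used as mitotic index; counts are raw and not normalised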", "scale": "mitotic cells: higher = more cells in mitosis, weaker G2 arrest", "active means": "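Genes are called active only when high mitotic counts were reproduced with independent dsRNAs and mitosis was checked for delay without damage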", "meaning of the calls": "active = confirmed in follow-up tests; inactive = not confirmed", "note": "In all, the deposit lists about 23,000 reagents; this is a random part of those with a known target gene and a result. Of all reagents, 62 (0.27%) got an active call. 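Calls come from follow-up tests whose scores are not deposited, so confirmed genes may have low counts here; counts are not normalised per plate.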 The raw values are shown without normalisation. The numbers tell different reagents against one gene apart. Names joined by + are all predicted targets of the reagent."}
The opening 4 records, ahead of the listing:
{"Target gene": "lncRNA:CR33938 (GeneID 3772088)", "dsRNA no.": 1, "mitotic cells, replicate 1": 17, "activity call": "inactive"}
{"Target gene": "lncRNA:CR33938 (GeneID 3772088)", "dsRNA no.": 2, "mitotic cells, replicate 1": 11, "activity call": "inactive"}
{"Target gene": "CG7483 (GeneID 40987)", "dsRNA no.": 1, "mitotic cells, replicate 1": 6, "activity call": "inactive"}
{"Target gene": "CG7483 (GeneID 40987)", "dsRNA no.": 2, "mitotic cells, replicate 1": 16, "activity call": "inactive"}

Results, from the start:
{"Target gene": "lncRNA:CR33938 (GeneID 3772088)", "dsRNA no.": 1, "mitotic cells, replicate 1": 17, "activity call": "inactive"}
{"Target gene": "lncRNA:CR33938 (GeneID 3772088)", "dsRNA no.": 2, "mitotic cells, replicate 1": 11, "activity call": "inactive"}
{"Target gene": "CG7483 (GeneID 40987)", "dsRNA no.": 1, "mitotic cells, replicate 1": 6, "activity call": "inactive"}
{"Target gene": "CG7483 (GeneID 40987)", "dsRNA no.": 2, "mitotic cells, replicate 1": 16, "activity call": "inactive"}
{"Target gene": "CG7483 (GeneID 40987)", "dsRNA no.": 3, "mitotic cells, replicate 1": 3, "activity call": "inactive"}
{"Target gene": "Qsox1 (GeneID 36464)", "dsRNA no.": 1, "mitotic cells, replicate 1": 3, "activity call": "inactive"}
{"Target gene": "Qsox1 (GeneID 36464)", "dsRNA no.": 2, "mitotic cells, replicate 1": 4, "activity call": "inactive"}
{"Target gene": "Rh4 (GeneID 39887)", "dsRNA no.": 1, "mitotic cells, replicate 1": 8, "activity call": "inactive"}
{"Target gene": "Rh4 (GeneID 39887)", "dsRNA no.": 2, "mitotic cells, replicate 1": 6, "activity call": "inactive"}
{"Target gene": "spel1 (GeneID 34842)", "dsRNA no.": 1, "mitotic cells, replicate 1": 5, "activity call": "inactive"}
{"Target gene": "spel1 (GeneID 34842)", "dsRNA no.": 2, "mitotic cells, replicate 1": 4, "activity call": "inactive"}
{"Target gene": "CG1785 (GeneID 31810)", "dsRNA no.": 1, "mitotic cells, replicate 1": 7, "activity call": "inactive"}
{"Target gene": "CG1785 (GeneID 31810)", "dsRNA no.": 2, "mitotic cells, replicate 1": 12, "activity call": "inactive"}
{"Target gene": "bonsai (GeneID 37587)", "dsRNA no.": 1, "mitotic cells, replicate 1": 6, "activity call": "inactive"}
{"Target gene": "bonsai (GeneID 37587)", "dsRNA no.": 2, "mitotic cells, replicate 1": 18, "activity call": "inactive"}
{"Target gene": "CG9737 (GeneID 43600)", "dsRNA no.": 1, "mitotic cells, replicate 1": 8, "activity call": "inactive"}
{"Target gene": "TwdlM (GeneID 43200)", "dsRNA no.": 1, "mitotic cells, replicate 1": 11, "activity call": "inactive"}
{"Target gene": "Vmat + CG13330", "dsRNA no.": 1, "mitotic cells, replicate 1": 9, "activity call": "inactive"}
{"Target gene": "Vmat + CG13330", "dsRNA no.": 2, "mitotic cells, replicate 1": 7, "activity call": "inactive"}
{"Target gene": "CG32681 (GeneID 318151)", "dsRNA no.": 1, "mitotic cells, replicate 1": 10, "activity call": "inactive"}
{"Target gene": "CG9933 (GeneID 34700)", "dsRNA no.": 1, "mitotic cells, replicate 1": 4, "activity call": "inactive"}
{"Target gene": "CG9933 (GeneID 34700)", "dsRNA no.": 2, "mitotic cells, replicate 1": 9, "activity call": "inactive"}
{"Target gene": "CG32106 (GeneID 317855)", "dsRNA no.": 1, "mitotic cells, replicate 1": 9, "activity call": "inactive"}
{"Target gene": "CG32564 (GeneID 326222)", "dsRNA no.": 1, "mitotic cells, replicate 1": 7, "activity call": "inactive"}
{"Target gene": "CG32564 (GeneID 326222)", "dsRNA no.": 2, "mitotic cells, replicate 1": 6, "activity call": "inactive"}
{"Target gene": "loopin-1 (GeneID 36847)", "dsRNA no.": 1, "mitotic cells, replicate 1": 7, "activity call": "inactive"}
{"Target gene": "loopin-1 (GeneID 36847)", "dsRNA no.": 2, "mitotic cells, replicate 1": 6, "activity call": "inactive"}
{"Target gene": "osa (GeneID 42130)", "dsRNA no.": 1, "mitotic cells, replicate 1": 12, "activity call": "inactive"}
{"Target gene": "Polr1D + DCTN6-p27", "dsRNA no.": 1, "mitotic cells, replicate 1": 9, "activity call": "inactive"}
{"Target gene": "CG13698 (GeneID 40000)", "dsRNA no.": 1, "mitotic cells, replicate 1": 4, "activity call": "inactive"}
{"Target gene": "Alg3 (GeneID 37754)", "dsRNA no.": 1, "mitotic cells, replicate 1": 4, "activity call": "inactive"}
{"Target gene": "CG2790 (GeneID 37992)", "dsRNA no.": 1, "mitotic cells, replicate 1": 5, "activity call": "inactive"}
{"Target gene": "CG2790 (GeneID 37992)", "dsRNA no.": 2, "mitotic cells, replicate 1": 3, "activity call": "inactive"}
{"Target gene": "baz (GeneID 32703)", "dsRNA no.": 1, "mitotic cells, replicate 1": 5, "activity call": "inactive"}
{"Target gene": "baz (GeneID 32703)", "dsRNA no.": 2, "mitotic cells, replicate 1": 7, "activity call": "inactive"}
